The list shows a part of the results, in another mix than the full data. At the low end of the ranking the order means little.
Target: SPI1 (UniProt P17947)
Test: DAPPL (digital affinity profiling via proximity ligation, sequencing)
Details: 10 mM Tris-HCl pH 7.5, 50 mM NaCl, 1 mM DTT, 4% glycerol, room temperature, 30 min; GST-TFs on glutathione beads, 16-mer random dsDNA library, 0.1% …; high values mean tight binding; double strand, one strand shown; scale: fold enrichment (6-mer frequency, TF over GST control)

Sequence | binding signal
GGGTCC | 0.772
AGGGCA | 0.767
GACAAC | 0.941
GTAGAG | 0.578
CGCAGA | 0.777
CGCCGT | 0.933
TAGGAC | 0.755
GGCACA | 0.838
GGGGCC | 0.553
AATCGG | 0.556
GTTGAG | 0.647
CAGAGT | 0.601
GCGCGG | 0.835
GGGTTA | 0.792
GTAACG | 0.958
AGACAC | 0.738
TGGGGC | 0.797
GGCACG | 0.757
AGGGGA | 0.903
AGAGGG | 0.745
CAACGT | 0.805
GTGCGG | 0.755
GCAGGG | 0.681
AGGACG | 0.45
AGTGAA | 1.26
TGAGTG | 0.425
GGCCAA | 0.833

Sequence | binding signal
TCGGCA | 0.726
TGTGTC | 0.731
AGAGCG | 0.437
GGGACC | 0.689
AGGCGG | 0.252
ATCGGC | 0.613
TGAGAC | 0.518
GTAAAG | 0.943
GGGAAG | 1.51
TCGGTA | 0.564
AGGGGT | 0.825
CCAGAG | 0.673
TAGGGA | 1.05
GGCATG | 0.819
CCAGAC | 0.659
GGAATC | 0.699
GAAGGA | 0.747
AGGCAG | 0.517
GGAGAA | 0.333
GTGGTG | 0.896
GTGATT | 0.779
GGGCTG | 0.976
AGATAG | 0.793
TCAGTC | 0.62
CAGTGA | 0.345
TGAGTA | 0.452
GTCCGA | 0.813

Sequence | binding signal
CCACGG | 0.848
GATAGA | 0.834
AGGCGC | 0.54
GGAGGG | 0.301
GATCAG | 0.725
CATAGG | 0.752
GCCAGT | 0.298
CAGCTG | 0.828
CGCATT | 0.929
GGCCCG | 0.845
AGGGTA | 0.928
GTGGAG | 0.452
ACCAGA | 0.835
GTTAGT | 0.764
CTGAGT | 0.616
CGGTCC | 0.911
CAGACA | 0.766
GCGTGT | 0.62
GAGGGG | 0.5
AGTCAG | 0.55
CGTAAG | 0.727
GTAAGT | 0.717
GCGGTC | 0.679
GATCCG | 0.916
GTGGGG | 0.627

Reformatted with tabs: entries from further up
Sequence	binding signal
TGAGTG	0.425
TGAGAC	0.518
CAGTGA	0.345
